Reference: publication PMC8492312
Results are given in words; binding and its absence hold for the method and conditions named. Binding seen in cells or lysates may run through a third protein. A yes stands for co-enrichment or nearness to the bait. Other partners may have been found. Where a sequence is shown, tags or fusion partners need not be part of it.

T1: lipin 1-BirA* (lipin 1 fused to the BirA* biotin ligase) (UniProt Q91ZP3)
T1 sequence: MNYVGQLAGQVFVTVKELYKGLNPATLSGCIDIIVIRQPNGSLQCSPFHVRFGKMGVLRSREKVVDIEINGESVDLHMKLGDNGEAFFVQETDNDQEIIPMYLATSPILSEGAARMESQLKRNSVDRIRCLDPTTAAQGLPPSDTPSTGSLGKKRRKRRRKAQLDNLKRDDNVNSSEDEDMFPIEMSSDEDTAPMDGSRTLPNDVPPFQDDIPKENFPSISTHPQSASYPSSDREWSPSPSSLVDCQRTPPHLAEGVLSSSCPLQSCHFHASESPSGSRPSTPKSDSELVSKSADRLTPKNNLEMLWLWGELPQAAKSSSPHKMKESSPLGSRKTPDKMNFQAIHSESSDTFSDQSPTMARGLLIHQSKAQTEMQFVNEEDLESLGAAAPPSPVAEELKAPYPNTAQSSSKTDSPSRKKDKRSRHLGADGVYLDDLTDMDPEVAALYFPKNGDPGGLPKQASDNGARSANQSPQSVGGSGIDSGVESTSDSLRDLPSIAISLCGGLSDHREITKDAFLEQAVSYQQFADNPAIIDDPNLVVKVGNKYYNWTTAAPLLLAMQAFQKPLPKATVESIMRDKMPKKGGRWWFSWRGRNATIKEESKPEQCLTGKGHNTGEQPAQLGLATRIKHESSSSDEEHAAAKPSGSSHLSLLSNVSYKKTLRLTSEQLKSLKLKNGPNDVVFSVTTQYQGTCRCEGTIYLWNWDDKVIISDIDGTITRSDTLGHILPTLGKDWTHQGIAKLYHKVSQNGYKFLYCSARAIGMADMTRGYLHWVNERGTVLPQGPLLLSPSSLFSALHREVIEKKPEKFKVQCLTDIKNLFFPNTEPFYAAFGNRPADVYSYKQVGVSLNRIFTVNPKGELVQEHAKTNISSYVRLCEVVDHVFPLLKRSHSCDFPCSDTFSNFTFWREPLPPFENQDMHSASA


What was measured:
[1] = biological target: T1, lipin 1-BirA* (lipin 1 fused to the BirA* biotin ligase); test: proximity labelling; lipin 1-BirA* in Hepa1-6 cells with biotin; streptavidin pull-down followed by immunoblot for the partner; negative control for endogenously biotinylated proteins
[2] = biological target: T1, lipin 1-BirA* (lipin 1 fused to the BirA* biotin ligase); test: proximity labelling; BioID: lipin 1-BirA* expressed in Hepa1-6 cells, 100 uM biotin for 24 hours, biotinylated proteins captured on streptavidin beads and identified by mass spectrometry; hits with at least 2 unique peptides, peptide-level FDR below 5%, endogenously biotinylated proteins removed

| Binder | binding [1] | binding [2] |
| --- | --- | --- |
| U2AF1 (protein, UniProt Q9D883 1-239) MAEYLASIFGTEKDKVNCSFYFKIGACRHGDRCSRLHNKPTFSQTIALLNIYRNPQNSSQSADGLRCAVSDVEMQEHYDEFFEEVFTEMEEKYGEVEEMNVCDNLGDHLVGNVYVKFRREEDAEKAVIDLNNRWFNGQPIHAELSPVTDFREACCRQYEMGECTRGGFCNFMHLKPISRELRRELYGRRRKKHRSRSRSRERRSRSRDRGRGGGGGGGGGGGRERDRRRSRDRERSGRF | binds |  |
| SPF45 (protein, UniProt Q8JZX4 1-405) MSLYDDLGVETSDSKTEGWSKNFKLLQSQLQVKKAALTQAKSQRTKQSTVLAPVIDLKRGGSSDDRQIADTPPHVAAGLKDPVPSGFSAGEVLIPLADEYDPMFPNDYEKVVKRQREERQRQRELERQKEIEEREKRRKDRHEASGFSRRPDPDSDEDEDYERERRKRSMGGAAIAPPTSLVEKDKELPRDFPYEEDSRPRSQSSKAAIPPPVYEEPDRPRSPTGPSNSFLANMGGTVAHKIMQKYGFREGQGLGKHEQGLSTALSVEKTSKRGGKIIVGDATEKGEAQDASKKSDSNPLTEILKCPTKVVLLRNMVGAGEVDEDLEVETKEECEKYGKVGKCVIFEIPGAPDDEAVRIFLEFERVESAIKAVVDLNGRYFGGRVVKACFYNLDKFRVLDLAEQV | binds |  |

Further lines, results first:

| binding [1] | binding [2] | Binder |
| --- | --- | --- |
| binds | binds | lipin 2 (protein, UniProt Q99PI5 1-893) MNYVGQLAGQVLVTVKELYKGINQATLSGCIDVVVVRQQDGSYQCSPFHVRFGKLGVLRSKEKVIDIEINGSAVDLHMKLGDNGEAFFVEETEEEYEKLPAYLATSPIPTEDQFFKHIETPLVKSSGNERPAQSSDVSHTLESEAVFTQSSVKKKKRRRKKCKQDNRKEEQAASPVAEDVGDVGVSSDDEKRAQAARGSSNASLKEEDYKEPSLFHSGDNYPLSDGDWSPLETTYPQAVCPKSDSELEVKPSESLLRSEPHMEWTWGGFPESTKVTKRERYDYHPRTATITPSENTHFRVIPSEDSLIREVEKDATVEDTTCTIVKPKPRALCKQLSDAASTELPESPLEAPQISSLLDADPVPSPSAEAPSEPKPAAKDSPTKKKGVHKRSQHQGPDDIYLDDLKALEPEVAALYFPKSDTDPGSRQWPESDTFSGSQSPQSVGSAAADSGTECLSDSAMDLPDVTLSLCGGLSENGEISKEKFMEHIITYHEFAENPGLIDNPNLVIRIYNRYYNWALAAPMILSLQVFQKSLPKATVESWVKDKMPKKSGRWWFWRKKESMIKQLPETKEGKSEVPPANDLPSNAEEPTSARPAENDTSSDEGSQELEESIKVDPITVETLSHCGTASYKKSLRLSSDQIAKLKLHDGPNDVVFSITTQYQGTCRCAGTIYLWNWNDKVIISDIDGTITKSDALGQILPQLGKDWTHQGIARLYHSINENGYKFLYCSARAIGMADMTRGYLHWVNDKGTILPRGPLMLSPSSLFSAFHREVIEKKPEKFKIECLNDIKNLFAPSRQPFYAAFGNRPNDVYAYTQVGVPDCRIFTVNPKGELIQERTKGNKSSYHRLSELVEHVFPLLSKEQNSAFPCPEFSSFCYWRDPIPDLDLDDLA |
| binds | binds | lipin 3 (protein, UniProt Q99PI4 1-848) MNYVGQLAETVFGTVKELYRGLNPATLSGGIDVLVVRQRDGSFRCSPFHVRFGKLGVLRSREKVVDIEINGEPVDLHMKLGDSGEAFFVQELDSDEEDVPPRLCTSPIPWGGLSGFPSDSQIGTASEPEGLVITGRRKRRRRRKPRRREEDAVDSSSEELEAGAESELTLLEKPTPESPSAQEAEEPSSQPKDIHPYSDGECTPQANLSSGDLMSPKSDSELELRSLEPSPLRAESHMQWVWGRLPKVAKAERPEFSLILESMAEAICALPEEPSPSSSPSEAGVDTLSPPVLHPGVRADTFHPAVEAHCEETAVDSPLAAPESKETKTQNSRGAGHPPATKSWSWTTPESHTPSGHPQVSRGKGSLKRNQHLGPSDIYLDDLPSLDSENVALYFPKSEYGMGARRWSEPSNQKLLESPNPEHIAECTLDSVDKIELSLCGGLADNRDISLEKFTQHMVSYEDLTKNPGLLDDPNLVVKINEKHYNWAVAAPMILSLQAFQKNLPESTVDKLEKEKMPRKGGRWWFSWRRRDFPAEEHSSQREKAATRKQQGEKTEVLSSDDDVPDSPVILEVPPLPSSTPGYVPTYKKSLRLSSDQIRCLNLNEGANDVVFSVTTQYQGTCRCKATIYLWNWDDKVVISDIDGTITKSDALGHILPQLGKDWTHQGITSLYHKIHLNGYKFLYCSARAIGMADLTKGYLQWVSEHGCGLPKGPILLSPSSLFSALHREVIEKKPEVFKVACLSDIQQLFLPQRQPFHAAFGNRPNDVFAYRQVGLPESRIFTVNPRGELIQELIKSHKSTYQRLGEVVELLFPPVVRGPSTDLASPEYSNLSYWRKPLPYVDFEALA |
